In article PMC7445179:
These are yes or no findings as the source states them, for the method shown. In cells and extracts the contact can be indirect. Some binding calls cover weakened binding; strength is not graded here.

The chains behind the UniProt entries cited, without tags or fusion partners.
UniProt Q09472: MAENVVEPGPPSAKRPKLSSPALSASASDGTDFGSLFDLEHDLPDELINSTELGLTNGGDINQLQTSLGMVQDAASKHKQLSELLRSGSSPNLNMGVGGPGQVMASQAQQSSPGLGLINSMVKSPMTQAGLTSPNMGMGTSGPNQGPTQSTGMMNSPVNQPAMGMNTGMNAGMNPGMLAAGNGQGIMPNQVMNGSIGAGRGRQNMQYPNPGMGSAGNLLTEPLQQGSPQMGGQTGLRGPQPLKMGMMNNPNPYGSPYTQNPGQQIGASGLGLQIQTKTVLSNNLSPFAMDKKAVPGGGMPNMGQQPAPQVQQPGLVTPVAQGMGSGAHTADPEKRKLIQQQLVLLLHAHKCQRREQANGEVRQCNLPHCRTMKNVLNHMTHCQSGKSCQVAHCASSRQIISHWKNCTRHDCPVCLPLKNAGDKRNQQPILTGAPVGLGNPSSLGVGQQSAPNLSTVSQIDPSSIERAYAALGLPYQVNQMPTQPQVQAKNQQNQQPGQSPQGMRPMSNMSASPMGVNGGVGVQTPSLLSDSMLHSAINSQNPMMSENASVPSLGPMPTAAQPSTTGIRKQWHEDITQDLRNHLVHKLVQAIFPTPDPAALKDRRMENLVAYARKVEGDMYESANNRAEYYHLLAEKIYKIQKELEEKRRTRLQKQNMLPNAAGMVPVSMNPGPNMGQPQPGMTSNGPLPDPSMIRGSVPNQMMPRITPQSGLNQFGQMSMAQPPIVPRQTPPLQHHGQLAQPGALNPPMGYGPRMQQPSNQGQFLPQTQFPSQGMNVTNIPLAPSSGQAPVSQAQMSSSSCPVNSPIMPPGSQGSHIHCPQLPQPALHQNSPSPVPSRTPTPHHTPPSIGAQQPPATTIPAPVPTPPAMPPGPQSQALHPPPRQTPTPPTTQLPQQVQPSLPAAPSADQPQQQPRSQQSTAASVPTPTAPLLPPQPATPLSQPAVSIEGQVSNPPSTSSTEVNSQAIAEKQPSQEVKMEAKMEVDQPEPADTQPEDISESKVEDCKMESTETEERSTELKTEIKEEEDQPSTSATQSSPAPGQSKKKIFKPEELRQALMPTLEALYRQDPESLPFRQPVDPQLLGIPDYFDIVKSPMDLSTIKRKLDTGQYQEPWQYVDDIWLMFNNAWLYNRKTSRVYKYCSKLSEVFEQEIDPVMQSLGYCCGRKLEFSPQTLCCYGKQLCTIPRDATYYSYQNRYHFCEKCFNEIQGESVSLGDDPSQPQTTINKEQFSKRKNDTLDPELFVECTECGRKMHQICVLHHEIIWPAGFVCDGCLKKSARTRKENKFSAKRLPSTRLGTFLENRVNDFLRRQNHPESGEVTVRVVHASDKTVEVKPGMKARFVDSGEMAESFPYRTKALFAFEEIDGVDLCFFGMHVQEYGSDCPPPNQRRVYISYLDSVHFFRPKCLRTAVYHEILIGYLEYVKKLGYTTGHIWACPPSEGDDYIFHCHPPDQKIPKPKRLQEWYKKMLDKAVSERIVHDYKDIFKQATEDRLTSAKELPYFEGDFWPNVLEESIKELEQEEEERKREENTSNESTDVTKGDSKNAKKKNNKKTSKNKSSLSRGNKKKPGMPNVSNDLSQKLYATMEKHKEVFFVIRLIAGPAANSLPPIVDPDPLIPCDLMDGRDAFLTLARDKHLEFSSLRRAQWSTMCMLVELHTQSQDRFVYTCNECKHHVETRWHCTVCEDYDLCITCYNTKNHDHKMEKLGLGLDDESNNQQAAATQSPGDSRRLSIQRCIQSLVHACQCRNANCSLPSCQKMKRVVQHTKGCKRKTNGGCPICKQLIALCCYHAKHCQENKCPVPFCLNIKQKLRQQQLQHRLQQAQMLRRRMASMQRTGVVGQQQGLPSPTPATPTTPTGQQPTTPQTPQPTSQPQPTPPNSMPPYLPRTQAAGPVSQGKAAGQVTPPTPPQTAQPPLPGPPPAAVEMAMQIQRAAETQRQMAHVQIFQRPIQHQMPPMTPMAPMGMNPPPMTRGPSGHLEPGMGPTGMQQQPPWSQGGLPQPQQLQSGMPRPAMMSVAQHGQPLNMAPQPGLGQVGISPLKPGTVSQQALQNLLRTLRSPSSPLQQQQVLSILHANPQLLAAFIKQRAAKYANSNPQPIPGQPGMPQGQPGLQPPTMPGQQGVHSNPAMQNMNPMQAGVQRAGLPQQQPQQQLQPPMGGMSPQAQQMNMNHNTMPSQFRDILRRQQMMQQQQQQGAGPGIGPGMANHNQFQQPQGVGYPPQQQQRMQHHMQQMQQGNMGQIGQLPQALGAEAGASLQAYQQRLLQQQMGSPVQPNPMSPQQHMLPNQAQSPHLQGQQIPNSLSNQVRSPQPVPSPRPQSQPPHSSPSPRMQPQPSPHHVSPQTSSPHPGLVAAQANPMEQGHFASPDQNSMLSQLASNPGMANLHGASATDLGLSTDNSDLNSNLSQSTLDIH
UniProt Q13616: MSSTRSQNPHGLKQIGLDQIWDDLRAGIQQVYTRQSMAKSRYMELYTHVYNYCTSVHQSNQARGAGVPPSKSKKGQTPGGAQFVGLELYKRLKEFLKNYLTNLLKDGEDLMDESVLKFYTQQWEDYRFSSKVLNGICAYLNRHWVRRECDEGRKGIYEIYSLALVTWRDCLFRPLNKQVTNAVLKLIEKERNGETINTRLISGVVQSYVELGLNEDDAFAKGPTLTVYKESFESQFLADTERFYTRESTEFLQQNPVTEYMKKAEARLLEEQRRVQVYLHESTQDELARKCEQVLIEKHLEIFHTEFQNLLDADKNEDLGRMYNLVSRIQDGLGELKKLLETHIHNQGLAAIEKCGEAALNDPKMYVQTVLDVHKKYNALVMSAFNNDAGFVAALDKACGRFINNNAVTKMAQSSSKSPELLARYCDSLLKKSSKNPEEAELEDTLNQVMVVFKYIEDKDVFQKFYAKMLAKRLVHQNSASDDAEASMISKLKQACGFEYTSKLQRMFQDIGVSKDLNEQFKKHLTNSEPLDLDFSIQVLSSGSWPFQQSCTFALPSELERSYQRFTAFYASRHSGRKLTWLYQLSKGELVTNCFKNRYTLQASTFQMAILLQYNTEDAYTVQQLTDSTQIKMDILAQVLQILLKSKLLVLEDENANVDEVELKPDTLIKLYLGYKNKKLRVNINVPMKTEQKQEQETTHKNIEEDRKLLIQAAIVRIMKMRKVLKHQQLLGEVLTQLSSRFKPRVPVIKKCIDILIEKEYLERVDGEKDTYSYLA

Experiments:
[1] = target: transcription co-activator p300 (human (endogenous in MCF7)) (UniProt Q09472); experiment: co-IP; endogenous proteins in NP40 lysate of MCF7 cells, untreated or treated with 1 µM MLN4924; IP with p300 antibody, blot for ERRβ and p300; anti-IgG as negative control
[2] = target: Cullin1 (human (endogenous in MCF7)) (UniProt Q13616); experiment: co-IP; endogenous proteins in NP40 lysate (50 mM Tris-Cl pH 8.0, 150 mM NaCl, 1% NP40); IP with antibodies against ubiquitin or Cullin1, blot for ERRβ; anti-IgG as negative control; Fig. 1c (cell line not stated) and Fig. 3d (MCF7, untreated or 0.3 µM MLN4924 for 24 h)

binding [1]: binds
binding [2]: binds
B1: Estrogen-related receptor beta (ERRβ) (protein, UniProt O95718 1-433)
chain: MSSDDRHLGSSCGSFIKTEPSSPSSGIDALSHHSPSGSSDASGGFGLALGTHANGLDSPPMFAGAGLGGTPCRKSYEDCASGIMEDSAIKCEYMLNAIPKRLCLVCGDIASGYHYGVASCEACKAFFKRTIQGNIEYSCPATNECEITKRRRKSCQACRFMKCLKVGMLKEGVRLDRVRGGRQKYKRRLDSESSPYLSLQISPPAKKPLTKIVSYLLVAEPDKLYAMPPPGMPEGDIKALTTLCDLADRELVVIIGWAKHIPGFSSLSLGDQMSLLQSAWMEILILGIVYRSLPYDDKLVYAEDYIMDEEHSRLAGLLELYRAILQLVRRYKKLKVEKEEFVTLKALALANSDSMYIEDLEAVQKLQDLLHEALQDYELSQRHEEPWRTGKLLLTLPLLRQTAAKAVQHFYSVKLQGKVPMHKLFLEMLEAKV
